In patent publication US20260092061A1, “COMPOUNDS FOR TARGETED PROTEIN DEGRADATION” (Amphista Therapeutics Limited, priority 2022, published 2026):
Structures were worked out from names or drawings and are uncertain.

Sequences of proteins named here, by UniProt entry; tags and fusion partners are left off.
UniProt Q9H8M2, whole entry: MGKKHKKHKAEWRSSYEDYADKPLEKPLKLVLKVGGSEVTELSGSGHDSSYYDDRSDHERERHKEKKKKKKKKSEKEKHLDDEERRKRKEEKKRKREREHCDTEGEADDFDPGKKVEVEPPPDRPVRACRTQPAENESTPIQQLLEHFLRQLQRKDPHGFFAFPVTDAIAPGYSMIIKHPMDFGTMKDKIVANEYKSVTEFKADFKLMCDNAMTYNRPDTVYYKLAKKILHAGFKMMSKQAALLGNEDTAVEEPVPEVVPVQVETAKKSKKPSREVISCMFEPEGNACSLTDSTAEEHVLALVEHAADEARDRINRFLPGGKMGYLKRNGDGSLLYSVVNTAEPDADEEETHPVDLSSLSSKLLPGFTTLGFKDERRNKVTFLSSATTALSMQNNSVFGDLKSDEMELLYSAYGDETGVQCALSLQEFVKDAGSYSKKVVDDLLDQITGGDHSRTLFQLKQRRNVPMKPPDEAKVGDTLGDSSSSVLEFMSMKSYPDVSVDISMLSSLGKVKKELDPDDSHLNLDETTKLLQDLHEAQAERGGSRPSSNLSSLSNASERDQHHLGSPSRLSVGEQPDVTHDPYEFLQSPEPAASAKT

Experiments:
BRD9 [1] = target: T1, BRD9 (Homo sapiens, UniProt Q9H8M2); experiment: Degradation of BRD9 (IF), immunofluorescence in MV4-11 cells, 24 hours (Assay Protocol 2)
Experimental: Assay Protocol 2—Degradation of BRD9 (IF)
A suspension of MV4-11 cells (ATCC CRL-9591) was prepared in phenol red-free assay media (IMDM Thermo Scientific 21056023+10% FBS ATCC 302025) and cells were seeded at 20,000 cells per well (45 μL) in sterile black poly-d-lysine coated 384 well plates (Greiner 781948). Compounds were prepared at 1000× final concentration in DMSO, diluted 1:100 in assay media, and 5 μL compound was added to each well of the cell plate. Cells were incubated for 24 hours at 37° C. with 5% CO2. All the following incubations for immunofluorescence staining were at room temperature. 15 μL of 16% PFA was added to each well (3.7% final concentration) and the cells were fixed for 15 min then washed twice with DPBS. Cells were permeabilised with 0.1% Triton X-100 for 10 min, Triton X-100 was removed, then blocked with 1% BSA in DPBS for 1 hour. Cells were stained with 25 μL anti-BRD9 E4Q3F antibody (CST 48306) diluted 1:25600 in 1% BSA in DPBS for 2-3 hours. […] Images were processed using Harmony High-Content Imaging and Analysis Software (Perkin Elmer) and the mean contrast ratio of Alexa Fluor™ 647 in central nuclei was used to quantify BRD9 protein levels. Data was further analysed using Dotmatics software and % BRD9 remaining was calculated by normalisation to average data from high and low control wells (cells treated with DMSO or 100 nM CFT-8634 respectively).

BRD9 [2] = target: T1, BRD9; experiment: BRD9 degradation, HiBiT-BRD9 KI HEK293 (LgBiT) cells, NanoGlo Lytic Endpoint assay (Assay Protocol 1)
Experimental: HiBiT-BRD9 KI HEK293 (LgBiT) Cells (Promega CS3023412) were seeded at 8000 cells per well (38 μL) in sterile white bottom 384 well plates (Invitrogen 164610 or Greiner 781080) and incubated overnight at 37° C. with 5% CO2. The next day, compounds were prepared at 1000× final concentration in DMSO and diluted 1:100 in media (DMEM PAN Biotech P04-03550+10% FBS ATCC 302025). 4 μL compound was added to each well of the cell plate and incubated for 6 h at 37° C. with 5% CO2 BRD9 expression was quantified using the NanoGlo Lytic Endpoint assay (Promega N3050). The lytic buffer was equilibrated to room temperature for 10-15 min before lytic reagent was prepared by adding substrate (1:50) and LgBit protein (1:100) in lytic buffer. 40 μL lytic reagent mix was added to each well of the cel plate and plates were centrifuged briefly at ˜50g. Plates were incubated with shaking (350 RPM) for 12-24 min before reading using the LUM plus module of a BMG Pherastar FSX. Data was analysed using Dotmatics software and % BRD9 remaining was calculated by normalisation to average data from high and low control wells (DMSO treated cels and no cells respectively).

DC50 (BRD9 [1]): < 0.00125 µM
Dmax (BRD9 [1]): + (+ = >40% and <70%)
DC50 (BRD9 [2]): 0.01 to 0.025 µM
Dmax (BRD9 [2]): +++ (+++ = ≥75%)
SMILES: COc1cc(-c2cn(C)c(=O)c(C)c2C)cc(OC)c1CN1CCN(Cc2cccc(C3CCCN3C(=O)C(C#N)=CC(C)C)c2)CC1 (stereo not shown)
